In article PMC9302817, “VEGF receptor heterodimers and homodimers are differentially expressed in neuronal and endothelial cell types” (PLoS ONE, 2022):
Results are given in words; binding and its absence hold for the method and conditions named. Binding seen in cells or lysates may run through a third protein. Some entries that bind do so weakly or less than the wild type. Values belong to the molecule of their own block, whether it stands above or below them.

Sequences of proteins named here, by UniProt entry; tags and fusion partners are left off. Residues count along the entry.
UniProt P17948, residues 27-1338: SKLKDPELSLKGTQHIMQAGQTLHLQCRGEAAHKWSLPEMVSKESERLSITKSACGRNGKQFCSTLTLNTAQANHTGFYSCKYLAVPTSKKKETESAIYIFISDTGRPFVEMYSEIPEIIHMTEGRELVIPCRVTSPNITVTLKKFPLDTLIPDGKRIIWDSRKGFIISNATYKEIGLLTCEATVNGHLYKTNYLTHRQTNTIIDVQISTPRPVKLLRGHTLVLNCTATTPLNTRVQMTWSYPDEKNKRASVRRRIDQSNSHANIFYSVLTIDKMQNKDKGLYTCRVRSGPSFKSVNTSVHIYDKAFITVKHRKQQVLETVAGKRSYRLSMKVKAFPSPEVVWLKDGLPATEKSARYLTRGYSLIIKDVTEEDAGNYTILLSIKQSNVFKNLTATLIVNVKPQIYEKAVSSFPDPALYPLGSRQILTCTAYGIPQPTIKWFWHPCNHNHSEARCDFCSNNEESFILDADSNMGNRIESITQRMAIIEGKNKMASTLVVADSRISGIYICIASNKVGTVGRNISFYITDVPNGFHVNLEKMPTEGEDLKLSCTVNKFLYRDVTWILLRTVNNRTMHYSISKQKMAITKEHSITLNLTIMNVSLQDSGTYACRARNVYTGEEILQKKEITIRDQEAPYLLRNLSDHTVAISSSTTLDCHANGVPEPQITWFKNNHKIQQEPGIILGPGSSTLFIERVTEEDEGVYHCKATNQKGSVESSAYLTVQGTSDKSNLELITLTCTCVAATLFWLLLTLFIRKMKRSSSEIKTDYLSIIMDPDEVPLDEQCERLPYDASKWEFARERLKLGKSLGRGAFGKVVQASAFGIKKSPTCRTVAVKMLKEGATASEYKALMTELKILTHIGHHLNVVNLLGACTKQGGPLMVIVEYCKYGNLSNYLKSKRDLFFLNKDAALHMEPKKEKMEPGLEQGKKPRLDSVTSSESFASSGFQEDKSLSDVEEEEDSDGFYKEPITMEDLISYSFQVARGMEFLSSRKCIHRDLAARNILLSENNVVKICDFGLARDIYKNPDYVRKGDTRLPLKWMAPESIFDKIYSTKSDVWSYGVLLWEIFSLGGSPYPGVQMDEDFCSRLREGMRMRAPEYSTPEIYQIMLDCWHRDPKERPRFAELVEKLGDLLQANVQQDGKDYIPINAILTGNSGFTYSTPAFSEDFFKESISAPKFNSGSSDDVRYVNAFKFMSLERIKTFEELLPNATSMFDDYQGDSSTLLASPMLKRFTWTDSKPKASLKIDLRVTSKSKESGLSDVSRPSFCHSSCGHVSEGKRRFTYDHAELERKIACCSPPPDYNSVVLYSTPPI
UniProt O08775, residues 20-1343: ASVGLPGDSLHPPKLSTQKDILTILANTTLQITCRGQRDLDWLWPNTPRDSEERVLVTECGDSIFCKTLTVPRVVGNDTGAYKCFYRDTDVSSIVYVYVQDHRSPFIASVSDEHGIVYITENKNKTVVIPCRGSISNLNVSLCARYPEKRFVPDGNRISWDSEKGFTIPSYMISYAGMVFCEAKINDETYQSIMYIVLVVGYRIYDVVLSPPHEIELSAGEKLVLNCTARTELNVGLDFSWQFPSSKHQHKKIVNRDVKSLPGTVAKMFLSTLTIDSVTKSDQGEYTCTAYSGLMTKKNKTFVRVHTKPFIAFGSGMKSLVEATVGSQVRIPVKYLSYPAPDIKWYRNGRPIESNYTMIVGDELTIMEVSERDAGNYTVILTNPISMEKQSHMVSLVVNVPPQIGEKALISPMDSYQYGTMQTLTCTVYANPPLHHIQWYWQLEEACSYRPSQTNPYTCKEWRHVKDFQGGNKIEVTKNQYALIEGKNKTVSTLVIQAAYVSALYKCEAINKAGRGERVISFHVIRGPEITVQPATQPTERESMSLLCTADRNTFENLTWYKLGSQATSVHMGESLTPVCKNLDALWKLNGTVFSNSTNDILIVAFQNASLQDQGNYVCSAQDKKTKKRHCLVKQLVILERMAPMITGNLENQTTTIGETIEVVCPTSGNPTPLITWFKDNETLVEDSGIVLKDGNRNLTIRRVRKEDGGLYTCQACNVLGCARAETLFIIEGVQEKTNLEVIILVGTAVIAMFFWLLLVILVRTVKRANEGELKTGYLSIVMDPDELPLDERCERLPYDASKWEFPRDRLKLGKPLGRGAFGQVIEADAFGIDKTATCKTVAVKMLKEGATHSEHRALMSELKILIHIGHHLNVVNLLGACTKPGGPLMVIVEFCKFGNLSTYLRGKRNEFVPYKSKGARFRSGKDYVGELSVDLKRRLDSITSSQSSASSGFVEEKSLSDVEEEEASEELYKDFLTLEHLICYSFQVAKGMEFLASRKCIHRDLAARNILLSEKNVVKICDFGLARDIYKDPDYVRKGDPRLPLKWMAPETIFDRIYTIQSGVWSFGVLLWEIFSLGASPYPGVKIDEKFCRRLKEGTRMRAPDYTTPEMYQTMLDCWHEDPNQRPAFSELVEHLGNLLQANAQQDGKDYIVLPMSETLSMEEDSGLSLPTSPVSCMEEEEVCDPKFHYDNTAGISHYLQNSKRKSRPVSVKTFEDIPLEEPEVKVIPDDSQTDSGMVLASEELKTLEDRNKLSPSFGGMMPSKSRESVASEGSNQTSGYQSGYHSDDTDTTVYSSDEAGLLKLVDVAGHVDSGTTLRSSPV
UniProt P35968, residues 20-1356: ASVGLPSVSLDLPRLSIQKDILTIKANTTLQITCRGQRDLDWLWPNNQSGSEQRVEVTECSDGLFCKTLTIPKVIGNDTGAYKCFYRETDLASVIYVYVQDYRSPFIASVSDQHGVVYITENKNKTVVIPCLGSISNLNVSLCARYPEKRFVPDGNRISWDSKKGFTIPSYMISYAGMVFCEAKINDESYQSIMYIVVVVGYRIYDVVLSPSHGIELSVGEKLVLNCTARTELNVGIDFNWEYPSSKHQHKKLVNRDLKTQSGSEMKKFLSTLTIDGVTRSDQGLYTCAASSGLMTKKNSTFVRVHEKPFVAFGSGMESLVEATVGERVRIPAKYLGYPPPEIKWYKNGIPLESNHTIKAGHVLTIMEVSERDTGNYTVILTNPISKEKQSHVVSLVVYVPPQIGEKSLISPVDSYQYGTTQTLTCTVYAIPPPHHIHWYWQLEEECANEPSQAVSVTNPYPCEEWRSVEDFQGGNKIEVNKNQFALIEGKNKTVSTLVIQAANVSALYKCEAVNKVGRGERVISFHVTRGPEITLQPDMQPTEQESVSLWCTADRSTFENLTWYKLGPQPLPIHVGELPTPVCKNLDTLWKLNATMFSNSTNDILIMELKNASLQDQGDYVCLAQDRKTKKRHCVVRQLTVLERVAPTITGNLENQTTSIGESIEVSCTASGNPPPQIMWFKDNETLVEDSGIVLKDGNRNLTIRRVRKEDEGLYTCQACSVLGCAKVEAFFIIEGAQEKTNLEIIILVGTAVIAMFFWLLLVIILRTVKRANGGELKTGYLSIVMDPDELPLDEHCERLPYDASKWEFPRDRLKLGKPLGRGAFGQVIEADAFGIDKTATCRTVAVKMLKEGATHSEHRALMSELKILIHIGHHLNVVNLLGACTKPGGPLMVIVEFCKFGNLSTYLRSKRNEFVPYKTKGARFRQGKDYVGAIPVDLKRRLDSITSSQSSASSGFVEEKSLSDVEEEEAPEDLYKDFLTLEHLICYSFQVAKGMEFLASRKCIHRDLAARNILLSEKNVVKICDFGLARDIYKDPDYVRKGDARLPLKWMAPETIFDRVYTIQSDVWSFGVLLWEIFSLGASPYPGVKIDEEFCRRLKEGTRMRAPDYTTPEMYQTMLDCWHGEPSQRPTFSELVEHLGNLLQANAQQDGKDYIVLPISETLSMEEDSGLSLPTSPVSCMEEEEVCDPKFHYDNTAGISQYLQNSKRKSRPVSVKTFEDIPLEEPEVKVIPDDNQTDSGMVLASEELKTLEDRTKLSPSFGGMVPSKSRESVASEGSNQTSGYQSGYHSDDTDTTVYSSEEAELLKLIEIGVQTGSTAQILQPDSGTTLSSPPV

Assays:
[1] = biological target: T1, VEGFR1 (rat, endogenous in PC12 neuronal cells) (rat (endogenous in PC12)) (UniProt P53767); assay: co-IP; cell lysates (PC12, MAEC, MVEC, HUVEC) in modified RIPA buffer, immunoprecipitated with rat anti-VEGFR1 on Protein G Dynabeads, blot probed with rabbit anti-VEGFR2; treated with vehicle, VEGF-A or VEGF-B; bead-only controls
T1 sequence: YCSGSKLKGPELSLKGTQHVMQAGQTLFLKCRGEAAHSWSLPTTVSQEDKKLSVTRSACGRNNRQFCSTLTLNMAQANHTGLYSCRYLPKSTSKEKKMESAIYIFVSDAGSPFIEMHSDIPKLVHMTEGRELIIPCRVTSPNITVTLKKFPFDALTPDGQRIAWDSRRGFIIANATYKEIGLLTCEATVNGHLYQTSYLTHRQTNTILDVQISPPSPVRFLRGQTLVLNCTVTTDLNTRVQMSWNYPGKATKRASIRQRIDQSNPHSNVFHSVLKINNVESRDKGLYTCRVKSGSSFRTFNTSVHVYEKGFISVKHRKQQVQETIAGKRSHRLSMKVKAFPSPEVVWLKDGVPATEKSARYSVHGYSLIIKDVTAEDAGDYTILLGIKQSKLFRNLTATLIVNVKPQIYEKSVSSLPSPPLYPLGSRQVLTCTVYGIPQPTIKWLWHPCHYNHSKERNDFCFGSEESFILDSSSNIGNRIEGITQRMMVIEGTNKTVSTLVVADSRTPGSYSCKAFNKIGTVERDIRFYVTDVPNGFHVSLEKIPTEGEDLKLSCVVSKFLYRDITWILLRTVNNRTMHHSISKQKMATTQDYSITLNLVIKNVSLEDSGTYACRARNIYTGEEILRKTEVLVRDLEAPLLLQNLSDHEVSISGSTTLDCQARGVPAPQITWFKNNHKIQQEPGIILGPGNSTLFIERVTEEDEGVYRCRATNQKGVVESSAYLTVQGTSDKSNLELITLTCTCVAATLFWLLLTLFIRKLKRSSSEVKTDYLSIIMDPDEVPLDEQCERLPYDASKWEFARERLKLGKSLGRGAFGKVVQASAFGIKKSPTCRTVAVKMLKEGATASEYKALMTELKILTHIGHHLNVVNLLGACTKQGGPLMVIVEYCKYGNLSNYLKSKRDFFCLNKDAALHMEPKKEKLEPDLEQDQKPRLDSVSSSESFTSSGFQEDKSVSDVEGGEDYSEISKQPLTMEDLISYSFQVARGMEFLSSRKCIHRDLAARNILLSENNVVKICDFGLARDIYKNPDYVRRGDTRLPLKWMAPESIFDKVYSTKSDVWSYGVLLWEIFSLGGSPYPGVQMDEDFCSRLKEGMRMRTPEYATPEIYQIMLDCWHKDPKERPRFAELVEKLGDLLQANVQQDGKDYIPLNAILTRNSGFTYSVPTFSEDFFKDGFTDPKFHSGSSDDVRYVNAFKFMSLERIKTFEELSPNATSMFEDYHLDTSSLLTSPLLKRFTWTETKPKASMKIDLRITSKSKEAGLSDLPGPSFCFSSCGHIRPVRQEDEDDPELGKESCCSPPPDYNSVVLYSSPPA

[2] = biological target: VEGFR1 (human, endogenous in HUVEC) (human (endogenous in HUVEC)) (UniProt P17948); assay: as above
[3] = biological target: T1, VEGFR1 (rat, endogenous in PC12 neuronal cells) (rat (endogenous in PC12)); assay: proximity ligation; Duolink PLA on fixed PC12 neuronal cells; anti-VEGFR1 and anti-VEGFR2 with PLUS and MINUS probes (the same antibody with both probes for homodimers); signal only within 40 nm
[4] = biological target: T2, VEGFR1 (mouse, endogenous in MAEC, MVEC, trigeminal ganglion neurons and mouse tissues) (mouse (endogenous in MAEC, MVEC, trigeminal ganglion neurons and mouse tissues)) (UniProt P35969); assay: co-IP; mouse tissue lysates (thoracic aorta, portal vein, dorsal root ganglia, trigeminal ganglia, cornea) immunoprecipitated with rat anti-VEGFR1 on Protein G Dynabeads, blot probed with anti-VEGFR2
T2 sequence: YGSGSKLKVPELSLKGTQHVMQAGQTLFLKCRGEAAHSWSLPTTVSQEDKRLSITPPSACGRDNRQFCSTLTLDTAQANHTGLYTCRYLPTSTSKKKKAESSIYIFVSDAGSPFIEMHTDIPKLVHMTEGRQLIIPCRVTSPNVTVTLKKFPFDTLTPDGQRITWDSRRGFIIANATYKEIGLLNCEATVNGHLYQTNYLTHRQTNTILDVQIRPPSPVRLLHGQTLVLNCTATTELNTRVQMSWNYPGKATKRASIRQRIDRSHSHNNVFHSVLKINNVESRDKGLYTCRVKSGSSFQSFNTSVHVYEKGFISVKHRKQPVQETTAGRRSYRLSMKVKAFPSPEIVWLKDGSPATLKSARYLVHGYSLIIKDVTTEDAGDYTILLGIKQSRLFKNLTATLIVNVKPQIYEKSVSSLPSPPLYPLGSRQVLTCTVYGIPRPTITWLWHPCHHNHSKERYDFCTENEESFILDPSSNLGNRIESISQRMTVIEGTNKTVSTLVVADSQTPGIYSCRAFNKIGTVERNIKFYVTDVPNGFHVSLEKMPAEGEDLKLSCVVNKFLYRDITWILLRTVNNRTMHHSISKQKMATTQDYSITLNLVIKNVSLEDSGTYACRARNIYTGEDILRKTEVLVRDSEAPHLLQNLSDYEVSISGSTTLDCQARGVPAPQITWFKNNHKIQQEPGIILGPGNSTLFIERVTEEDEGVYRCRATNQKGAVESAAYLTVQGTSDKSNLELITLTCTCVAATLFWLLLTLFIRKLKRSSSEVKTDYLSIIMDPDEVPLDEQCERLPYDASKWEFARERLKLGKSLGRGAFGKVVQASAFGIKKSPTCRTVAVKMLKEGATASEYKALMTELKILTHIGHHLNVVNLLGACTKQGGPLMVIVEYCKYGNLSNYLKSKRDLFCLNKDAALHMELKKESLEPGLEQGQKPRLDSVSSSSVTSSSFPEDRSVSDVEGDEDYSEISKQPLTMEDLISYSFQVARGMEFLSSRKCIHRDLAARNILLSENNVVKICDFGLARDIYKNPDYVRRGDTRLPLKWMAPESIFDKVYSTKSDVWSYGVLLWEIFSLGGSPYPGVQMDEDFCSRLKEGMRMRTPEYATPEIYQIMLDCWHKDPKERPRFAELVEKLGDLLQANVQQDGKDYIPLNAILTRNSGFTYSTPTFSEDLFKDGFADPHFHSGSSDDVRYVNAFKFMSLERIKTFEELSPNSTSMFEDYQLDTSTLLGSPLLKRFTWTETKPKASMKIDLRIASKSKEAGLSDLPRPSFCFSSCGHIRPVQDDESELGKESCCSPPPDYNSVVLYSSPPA

[5] = biological target: T2, VEGFR1 (mouse, endogenous in MAEC, MVEC, trigeminal ganglion neurons and mouse tissues) (mouse (endogenous in MAEC, MVEC, trigeminal ganglion neurons and mouse tissues)); assay: co-IP; cell lysates (PC12, MAEC, MVEC, HUVEC) in modified RIPA buffer, immunoprecipitated with rat anti-VEGFR1 on Protein G Dynabeads, blot probed with rabbit anti-VEGFR2; treated with vehicle, VEGF-A or VEGF-B; bead-only controls

B1: VEGFR1 (rat, endogenous in PC12 neuronal cells) (receptor, UniProt P53767 23-1336)
chain: YCSGSKLKGPELSLKGTQHVMQAGQTLFLKCRGEAAHSWSLPTTVSQEDKKLSVTRSACGRNNRQFCSTLTLNMAQANHTGLYSCRYLPKSTSKEKKMESAIYIFVSDAGSPFIEMHSDIPKLVHMTEGRELIIPCRVTSPNITVTLKKFPFDALTPDGQRIAWDSRRGFIIANATYKEIGLLTCEATVNGHLYQTSYLTHRQTNTILDVQISPPSPVRFLRGQTLVLNCTVTTDLNTRVQMSWNYPGKATKRASIRQRIDQSNPHSNVFHSVLKINNVESRDKGLYTCRVKSGSSFRTFNTSVHVYEKGFISVKHRKQQVQETIAGKRSHRLSMKVKAFPSPEVVWLKDGVPATEKSARYSVHGYSLIIKDVTAEDAGDYTILLGIKQSKLFRNLTATLIVNVKPQIYEKSVSSLPSPPLYPLGSRQVLTCTVYGIPQPTIKWLWHPCHYNHSKERNDFCFGSEESFILDSSSNIGNRIEGITQRMMVIEGTNKTVSTLVVADSRTPGSYSCKAFNKIGTVERDIRFYVTDVPNGFHVSLEKIPTEGEDLKLSCVVSKFLYRDITWILLRTVNNRTMHHSISKQKMATTQDYSITLNLVIKNVSLEDSGTYACRARNIYTGEEILRKTEVLVRDLEAPLLLQNLSDHEVSISGSTTLDCQARGVPAPQITWFKNNHKIQQEPGIILGPGNSTLFIERVTEEDEGVYRCRATNQKGVVESSAYLTVQGTSDKSNLELITLTCTCVAATLFWLLLTLFIRKLKRSSSEVKTDYLSIIMDPDEVPLDEQCERLPYDASKWEFARERLKLGKSLGRGAFGKVVQASAFGIKKSPTCRTVAVKMLKEGATASEYKALMTELKILTHIGHHLNVVNLLGACTKQGGPLMVIVEYCKYGNLSNYLKSKRDFFCLNKDAALHMEPKKEKLEPDLEQDQKPRLDSVSSSESFTSSGFQEDKSVSDVEGGEDYSEISKQPLTMEDLISYSFQVARGMEFLSSRKCIHRDLAARNILLSENNVVKICDFGLARDIYKNPDYVRRGDTRLPLKWMAPESIFDKVYSTKSDVWSYGVLLWEIFSLGGSPYPGVQMDEDFCSRLKEGMRMRTPEYATPEIYQIMLDCWHKDPKERPRFAELVEKLGDLLQANVQQDGKDYIPLNAILTRNSGFTYSVPTFSEDFFKDGFTDPKFHSGSSDDVRYVNAFKFMSLERIKTFEELSPNATSMFEDYHLDTSSLLTSPLLKRFTWTETKPKASMKIDLRITSKSKEAGLSDLPGPSFCFSSCGHIRPVRQEDEDDPELGKESCCSPPPDYNSVVLYSSPPA
binding [3]: binds weakly

B2: VEGFR2 (mouse, endogenous in MAEC, MVEC, trigeminal ganglion neurons and mouse tissues) (receptor, UniProt P35918 20-1345, looked up)
chain: ASVGLPGDFLHPPKLSTQKDILTILANTTLQITCRGQRDLDWLWPNAQRDSEERVLVTECGGGDSIFCKTLTIPRVVGNDTGAYKCSYRDVDIASTVYVYVRDYRSPFIASVSDQHGIVYITENKNKTVVIPCRGSISNLNVSLCARYPEKRFVPDGNRISWDSEIGFTLPSYMISYAGMVFCEAKINDETYQSIMYIVVVVGYRIYDVILSPPHEIELSAGEKLVLNCTARTELNVGLDFTWHSPPSKSHHKKIVNRDVKPFPGTVAKMFLSTLTIESVTKSDQGEYTCVASSGRMIKRNRTFVRVHTKPFIAFGSGMKSLVEATVGSQVRIPVKYLSYPAPDIKWYRNGRPIESNYTMIVGDELTIMEVTERDAGNYTVILTNPISMEKQSHMVSLVVNVPPQIGEKALISPMDSYQYGTMQTLTCTVYANPPLHHIQWYWQLEEACSYRPGQTSPYACKEWRHVEDFQGGNKIEVTKNQYALIEGKNKTVSTLVIQAANVSALYKCEAINKAGRGERVISFHVIRGPEITVQPAAQPTEQESVSLLCTADRNTFENLTWYKLGSQATSVHMGESLTPVCKNLDALWKLNGTMFSNSTNDILIVAFQNASLQDQGDYVCSAQDKKTKKRHCLVKQLIILERMAPMITGNLENQTTTIGETIEVTCPASGNPTPHITWFKDNETLVEDSGIVLRDGNRNLTIRRVRKEDGGLYTCQACNVLGCARAETLFIIEGAQEKTNLEVIILVGTAVIAMFFWLLLVIVLRTVKRANEGELKTGYLSIVMDPDELPLDERCERLPYDASKWEFPRDRLKLGKPLGRGAFGQVIEADAFGIDKTATCKTVAVKMLKEGATHSEHRALMSELKILIHIGHHLNVVNLLGACTKPGGPLMVIVEFCKFGNLSTYLRGKRNEFVPYKSKGARFRQGKDYVGELSVDLKRRLDSITSSQSSASSGFVEEKSLSDVEEEEASEELYKDFLTLEHLICYSFQVAKGMEFLASRKCIHRDLAARNILLSEKNVVKICDFGLARDIYKDPDYVRKGDARLPLKWMAPETIFDRVYTIQSDVWSFGVLLWEIFSLGASPYPGVKIDEEFCRRLKEGTRMRAPDYTTPEMYQTMLDCWHEDPNQRPSFSELVEHLGNLLQANAQQDGKDYIVLPMSETLSMEEDSGLSLPTSPVSCMEEEEVCDPKFHYDNTAGISHYLQNSKRKSRPVSVKTFEDIPLEEPEVKVIPDDSQTDSGMVLASEELKTLEDRNKLSPSFGGMMPSKSRESVASEGSNQTSGYQSGYHSDDTDTTVYSSDEAGLLKMVDAAVHADSGTTLRSPPV
notes: Endogenous protein; also called KDR; flk-1; source: endogenous, MAEC and MVEC lysates; endogenous, mouse tissue lysates (thoracic aorta, portal vein, dorsal root ganglia, trigeminal ganglia, cornea); endogenous, fixed MAEC, MVEC and trigeminal ganglion neuronal cells
binding [4]: binds | binding [5]: binds

Other lines, results leading:

binding [1]: binds
Molecule: VEGFR2 (rat, endogenous in PC12 neuronal cells) (from UniProt O08775 20-1343) (receptor)

binding [2]: binds
Molecule: VEGFR2 (human, endogenous in HUVEC) (from UniProt P35968 20-1356) (receptor)
